These are yes or no findings as the source states them, for the method shown.
Target: IL-17
Test: specificity ELISA, ligand coated

binding: no binding (tested: 100 nM IgG)
B1: BDG33.023 (antibody, human IgG1, V domains shown)
VH: QMQLVESGGGVVQPGRSLRLSCAASGFAFRTYGMHWVRQAPGKGLEWVAVIWYDGSNTHYADSVKGRFTITRDNSKNTLNLQMNSLRAEDTAVYYCARAPQWYLSAEAFDLWGQGTMVTVSS
VL: SYVLTQPPSVSVAPGQTARITCGGNLIGSKLVHWYQQKPGQAPVLVVYDDSDRPSRIPERFSGSNSGNTATLTISRVEAGDEADYYCQVWDHSSDHVVFGGGTKLTVL

Reference: patent US20240101675A1
